# The other results are listed elsewhere or left out.
# Assays:
# Experiment in all cases: glycan array binding signal (z-score within array); higher = stronger binding
# Conditions in all cases: glycan notation: IUPAC condensed, linker removed
# [1] = target: Neu5Ac(a2-6)Gal(b1-4)GlcNAc(b1-3)Gal(b1-4)GlcNAc(b1-3)Gal(b1-4)GlcNAc(b1-2)Man(a1-3)[Neu5Ac(a2-6)Gal(b1-4)GlcNAc(b1-3)Gal(b1-4)GlcNAc(b1-3)Gal(b1-4)GlcNAc(b1-2)Man(a1-6)]GalNAc
# How it was run: (§1)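 Glycan array data were curated from 3228 arrays in the Consortium for Functional Glycomics database and kept only where the protein sequence was available. Glycan names were converted to IUPAC-condensed notation, and columns mapping to the same glycan were averaged. The binding signal is a within-array Z-score, averaged across arrays of the same protein sequence at different concentrations or buffers and across linkers. Negative Z-scores can be read as non-binding.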
# [2] = target: Neu5Ac(a2-6)Gal(b1-4)GlcNAc(b1-3)Gal(b1-4)GlcNAc(b1-3)GalNAc
# How it was run: as §1
# [3] = target: Neu5Ac(a2-6)Gal(b1-4)GlcNAc(b1-3)Gal(b1-4)GlcNAc(b1-3)[Neu5Ac(a2-6)Gal(b1-4)GlcNAc(b1-3)Gal(b1-4)GlcNAc(b1-6)]GalNAc
# How it was run: as §1
# [4] = target: Neu5Ac(a2-6)Gal(b1-4)GlcNAc(b1-3)Gal(b1-4)GlcNAc(b1-6)[Gal(b1-3)]GalNAc
# How it was run: as §1
# [5] = target: Neu5Ac(a2-6)Gal(b1-4)GlcNAc(b1-3)Gal(b1-4)[Fuc(a1-3)]GlcNAc(b1-3)Gal(b1-4)[Fuc(a1-3)]GlcNAc
# How it was run: as §1
# [6] = target: Neu5Ac(a2-6)Gal(b1-4)GlcNAc(b1-3)GalNAc
# How it was run: as §1
# [7] = target: Neu5Ac(a2-6)Gal(b1-4)GlcNAc(b1-3)[Neu5Ac(a2-6)Gal(b1-4)GlcNAc(b1-6)]GalNAc
# How it was run: as §1
# [8] = target: Neu5Ac(a2-6)Gal(b1-4)GlcNAc(b1-6)GalNAc
# How it was run: as §1
# [9] = target: Neu5Ac(a2-6)Gal(b1-4)GlcNAc(b1-6)[Gal(b1-3)GlcNAc(b1-3)]Gal(b1-4)Glc
# How it was run: as §1
# [10] = target: Neu5Ac(a2-6)Gal(b1-4)GlcNAc(b1-6)[Gal(b1-3)]GalNAc
# How it was run: as §1
# [11] = target: Neu5Ac(a2-6)Gal(b1-4)GlcNAc6S
# How it was run: as §1
# Neu5Ac(a2-6)GalNAc = target: Neu5Ac(a2-6)GalNAc
# How it was run: as §1
# [12] = target: Neu5Ac(a2-6)GalNAc(b1-4)GlcNAc
# How it was run: as §1
# [13] = target: Neu5Ac(a2-6)GalNAc(b1-4)GlcNAc6S
# How it was run: as §1
# [14] = target: Neu5Ac(a2-6)GlcNAc(b1-4)GlcNAc
# How it was run: as §1
# [15] = target: Neu5Ac(a2-6)GlcNAc(b1-4)GlcNAc(b1-4)GlcNAc
# How it was run: as §1
# Neu5Ac(a2-8)Neu5Ac = target: Neu5Ac(a2-8)Neu5Ac
# How it was run: as §1
# [16] = target: Neu5Ac(a2-8)Neu5Ac(a2-3)Gal(b1-3)GalNAc(b1-4)[Neu5Ac(a2-3)]Gal(b1-4)Glc
# How it was run: as §1
# [17] = target: Neu5Ac(a2-8)Neu5Ac(a2-3)Gal(b1-3)GalNAc(b1-4)[Neu5Ac(a2-8)Neu5Ac(a2-3)]Gal(b1-4)Glc
# How it was run: as §1
# [18] = target: Neu5Ac(a2-8)Neu5Ac(a2-3)Gal(b1-4)Glc
# How it was run: as §1
# [19] = target: Neu5Ac(a2-8)Neu5Ac(a2-3)Gal(b1-4)GlcNAc
# How it was run: as §1
# [20] = target: Neu5Ac(a2-8)Neu5Ac(a2-3)[Gal(b1-3)GalNAc(b1-4)]Gal(b1-4)Glc
# How it was run: as §1
# [21] = target: Neu5Ac(a2-8)Neu5Ac(a2-3)[GalNAc(b1-4)]Gal(b1-4)Glc
# How it was run: as §1
# [22] = target: Neu5Ac(a2-8)Neu5Ac(a2-8)Neu5Ac
# How it was run: as §1
# [23] = target: Neu5Ac(a2-8)Neu5Ac(a2-8)Neu5Ac(a2-3)Gal(b1-4)Glc
# How it was run: as §1
# [24] = target: Neu5Ac(a2-8)Neu5Ac(a2-8)Neu5Ac(a2-3)[Gal(b1-3)GalNAc(b1-4)]Gal(b1-4)Glc
# How it was run: as §1
# [25] = target: Neu5Ac(a2-8)Neu5Ac(a2-8)Neu5Ac(a2-3)[GalNAc(b1-4)]Gal(b1-4)Glc
# How it was run: as §1
# [26] = target: Neu5Ac(a2-8)Neu5Ac(a2-8)Neu5Ac(a2-8)Neu5Ac(a2-3)[GalNAc(b1-4)]Gal(b1-4)Glc
# How it was run: as §1
# [27] = target: Neu5Ac(a2-8)Neu5Gc(a2-3)Gal(b1-4)GlcNAc
# How it was run: as §1
# [28] = target: Neu5Ac(b2-6)Gal(b1-4)GlcNAc
# How it was run: as §1
# Neu5Ac(b2-6)GalNAc = target: Neu5Ac(b2-6)GalNAc
# How it was run: as §1
# [29] = target: Neu5Ac9Ac(a2-3)Gal(b1-3)GlcNAc
# How it was run: as §1
# [30] = target: Neu5Ac9Ac(a2-3)Gal(b1-4)GlcNAc
# How it was run: as §1
# [31] = target: Neu5Ac9Ac(a2-6)Gal(b1-4)GlcNAc
# How it was run: as §1
# [32] = target: Neu5Gc(a2-3)Gal(b1-3)GlcNAc
# How it was run: as §1
# [33] = target: Neu5Gc(a2-3)Gal(b1-3)[Fuc(a1-4)]GlcNAc
# How it was run: as §1
# Neu5Gc(a2-3)Gal(b1-4)Glc = target: Neu5Gc(a2-3)Gal(b1-4)Glc
# How it was run: as §1
# [34] = target: Neu5Gc(a2-3)Gal(b1-4)GlcNAc
# How it was run: as §1
# [35] = target: Neu5Gc(a2-3)Gal(b1-4)GlcNAc(b1-3)Gal(b1-4)GlcNAc(b1-2)Man(a1-3)[Neu5Gc(a2-3)Gal(b1-4)GlcNAc(b1-3)Gal(b1-4)GlcNAc(b1-2)Man(a1-6)]Man(b1-4)GlcNAc(b1-4)GlcNAc
# How it was run: as §1
# [36] = target: Neu5Gc(a2-3)Gal(b1-4)[Fuc(a1-3)]GlcNAc
# How it was run: as §1
# [37] = target: Neu5Gc(a2-6)Gal(b1-4)GlcNAc
# How it was run: as §1
# Neu5Gc(a2-6)GalNAc = target: Neu5Gc(a2-6)GalNAc
# How it was run: as §1
# [38] = target: Neu5Gc(a2-8)Neu5Ac(a2-3)Gal(b1-4)GlcNAc
# How it was run: as §1
# [39] = target: Neu5Gc(a2-8)Neu5Gc(a2-3)Gal(b1-4)GlcNAc
# How it was run: as §1
# [40] = target: Neu5Gc(a2-8)Neu5Gc(a2-3)Gal(b1-4)GlcNAc(b1-3)Gal(b1-4)GlcNAc
# How it was run: as §1
binder,measurement,setting,value
Loc1 (Escherichia coli) (protein) APCALTNVGEQRGTYILKPLSMKGNLTAEKIENTGNIIECTDLQETTNAIKVHFLTQNALKFKVGSRHYIINFPFEYDGKKIELPGKSSYNLEEMLSAINFTIPYSIASVSDSSNTADIFPGTPFPLLFEIEVSSCTGNNTNCNSVRFNYNLNTILQVNLMTHHHHHH,glycan array binding signal (z-score),[1],1.65
same,glycan array binding signal (z-score),[2],-0.946
same,glycan array binding signal (z-score),[3],0.271
same,glycan array binding signal (z-score),[4],-0.119
same,glycan array binding signal (z-score),[5],-0.526
same,glycan array binding signal (z-score),[6],0.013
same,glycan array binding signal (z-score),[7],-0.356
same,glycan array binding signal (z-score),[8],-0.348
same,glycan array binding signal (z-score),[9],-0.628
same,glycan array binding signal (z-score),[10],-0.824
same,glycan array binding signal (z-score),[11],-0.419
same,glycan array binding signal (z-score),Neu5Ac(a2-6)GalNAc,-0.762
same,glycan array binding signal (z-score),[12],1.45
same,glycan array binding signal (z-score),[13],-0.365
same,glycan array binding signal (z-score),[14],-0.735
same,glycan array binding signal (z-score),[15],-0.73
same,glycan array binding signal (z-score),Neu5Ac(a2-8)Neu5Ac,0.04
same,glycan array binding signal (z-score),[16],0.266
same,glycan array binding signal (z-score),[17],0.203
same,glycan array binding signal (z-score),[18],8.5
same,glycan array binding signal (z-score),[19],-0.065
same,glycan array binding signal (z-score),[20],0.262
same,glycan array binding signal (z-score),[21],0.28
same,glycan array binding signal (z-score),[22],-0.352
same,glycan array binding signal (z-score),[23],0.255
same,glycan array binding signal (z-score),[24],0.345
same,glycan array binding signal (z-score),[25],0.741
same,glycan array binding signal (z-score),[26],1.19
same,glycan array binding signal (z-score),[27],-0.211
same,glycan array binding signal (z-score),[28],-0.834
same,glycan array binding signal (z-score),Neu5Ac(b2-6)GalNAc,-0.643
same,glycan array binding signal (z-score),[29],0.131
same,glycan array binding signal (z-score),[30],-0.389
same,glycan array binding signal (z-score),[31],0.667
same,glycan array binding signal (z-score),[32],-0.923
same,glycan array binding signal (z-score),[33],0.041
same,glycan array binding signal (z-score),Neu5Gc(a2-3)Gal(b1-4)Glc,-0.669
same,glycan array binding signal (z-score),[34],-1.23
same,glycan array binding signal (z-score),[35],0.253
same,glycan array binding signal (z-score),[36],-1.04
same,glycan array binding signal (z-score),[37],-0.072
same,glycan array binding signal (z-score),Neu5Gc(a2-6)GalNAc,0.381
same,glycan array binding signal (z-score),[38],0.15
same,glycan array binding signal (z-score),[39],0.486
same,glycan array binding signal (z-score),[40],-0.565

# A portion of the results above, as a working copy:
binder,measurement,setting,value
Loc1 (Escherichia coli) (protein) APCALTNVGEQRGTYILKPLSMKGNLTAEKIENTGNIIECTDLQETTNAIKVHFLTQNALKFKVGSRHYIINFPFEYDGKKIELPGKSSYNLEEMLSAINFTIPYSIASVSDSSNTADIFPGTPFPLLFEIEVSSCTGNNTNCNSVRFNYNLNTILQVNLMTHHHHHH,glycan array binding signal (z-score),[5],-0.526
same,glycan array binding signal (z-score),[6],0.013

# — the supplement of paper PMC8728848
